Laboratory results as given in patent US20060099580A1.
These are yes or no findings as the source states them, for the method shown. Some binding calls cover weakened binding; strength is not graded here.

Protein sequences, listed by entry. Tags and fused reporters are not part of them. Lines headed by an entry give the natural chain unless they say otherwise; changes in a name come on top.
UniProt Q92769: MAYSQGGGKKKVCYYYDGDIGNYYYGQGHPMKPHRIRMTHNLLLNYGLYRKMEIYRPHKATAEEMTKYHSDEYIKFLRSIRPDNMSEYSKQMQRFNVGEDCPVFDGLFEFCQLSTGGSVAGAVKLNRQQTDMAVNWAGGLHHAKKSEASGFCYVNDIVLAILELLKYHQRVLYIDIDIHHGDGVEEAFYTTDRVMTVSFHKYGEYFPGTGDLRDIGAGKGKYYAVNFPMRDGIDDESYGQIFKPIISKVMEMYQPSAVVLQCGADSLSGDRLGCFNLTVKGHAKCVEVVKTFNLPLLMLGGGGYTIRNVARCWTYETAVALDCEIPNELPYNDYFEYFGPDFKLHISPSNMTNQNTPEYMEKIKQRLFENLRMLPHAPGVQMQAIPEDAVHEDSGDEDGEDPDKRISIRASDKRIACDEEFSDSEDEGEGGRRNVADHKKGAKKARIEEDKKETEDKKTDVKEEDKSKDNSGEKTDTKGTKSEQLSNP
UniProt A6NE82: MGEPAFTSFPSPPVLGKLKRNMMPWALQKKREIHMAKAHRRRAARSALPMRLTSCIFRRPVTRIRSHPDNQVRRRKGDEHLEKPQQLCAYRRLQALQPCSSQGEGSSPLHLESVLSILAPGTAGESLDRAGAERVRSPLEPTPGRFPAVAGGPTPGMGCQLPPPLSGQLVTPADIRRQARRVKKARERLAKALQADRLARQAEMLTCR
UniProt Q8WWY6: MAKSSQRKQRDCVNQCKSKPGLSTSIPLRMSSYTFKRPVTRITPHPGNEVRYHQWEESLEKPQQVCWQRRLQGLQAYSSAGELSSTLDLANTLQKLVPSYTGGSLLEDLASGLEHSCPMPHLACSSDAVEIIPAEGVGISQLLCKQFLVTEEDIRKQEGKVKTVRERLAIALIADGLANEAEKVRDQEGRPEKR

How the values were obtained:
[1] = target: histone deacetylase HDAC2 (UniProt Q92769); assay: isolation of HDAC2 complexes (figure legend)
[2] = target: histone deacetylase HDAC2 (UniProt Q92769); assay: isolation of HDAC2 complexes from cells, analysed for associated proteins
[3] = target: histone deacetylase HDAC2 (UniProt Q92769); assay: HDAC2 complexes isolated with constant MBD2 and increasing homolog protein

Measured: binding

MBD2-C-Terminal Homolog 1 (MBD2-CTH1) (from UniProt A6NE82 1-208)
binds: all assays above

MBD2-C-Terminal Homolog 2 (MBD2-CTH2) (from UniProt Q8WWY6 1-194)
binds: all assays above
